The results in this text go back to patent US20090294381A1, “METHODS FOR CONTROLLING PH IN WATER SANITIZED BY CHEMICAL OR ELECTROLYTIC CHLORINATION” (ZODIAC POOL CARE, INC., priority 2005, published 2009).

The data set can be described thus: pH control in 6 L vessel with DuoClear 15 electrolytic chlorinator.

With `[Cl-].[Cl-].[Zn+2]` [zinc chloride], where the note is “6.28 g one-time batch addition to 6 L, mixed overnight, pH reduced from 7.9”, the “initial pH after addition and mixing” value was 6.0. Besides, the “increase in pH” value (Example 1: 6.28 g batch addition, 60 minutes of chlorinator operation) is on record as “approximately 1.25 pH units”. Besides, under “Example 2: 12.2 mM aqueous solution at 10.5 ml/min, 60 minutes of operation”, the “net increase in pH” value was “about 0.8 pH units”. Moreover, the pH increase entry (Example 3: 25 mM solution at 10.2 ml/min, 60 minutes of operation) is listed as “about 0.2 pH units”.
